According to PubChem BioAssay AID504467 (National Center for Advancing Translational Sciences (NCATS), 2011):
Out of some 330,000 compounds screened, about 7,700 (2.3%) were called active. The shares of active, inactive and inconclusive entries below differ from those in the screen. The call rests on the fitted dose curve; in most records, active means well fitted inhibition curve with a large enough effect; inconclusive means small, poorly fitted or top-dose-only effect, or effect the other way; inactive means flat fitted curve, though single readings scatter. Where the call is inconclusive, the potency comes from a doubtful curve fit.

Test: qHTS screen for small molecules that inhibit ELG1-dependent DNA repair in human embryonic kidney (HEK293T) cells expressing luciferase-tagged ELG1; further: nearly all actives have a fitted effect of over 55% in size
Conditions: HEK293T ELG1-luciferase reporter, luminescence, 16 h, DNA damage induced by 5-fluorouridine; activity change, negative = inhibition: at 46.1 µM (top of the series)
Procedure, shortened: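 Quantitative HTS, concentration-response format. 2,000 cells/well co-treated with 5-fluorouridine and compound, 16 hr in 5% CO2 at 37 °C; ONE-Glo luminescence read after 30 min.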
On the % scale 0 is the no-effect control and ±100 the full control effect; potency means the concentration at half of the fitted maximal effect.

Row | SMILES | Potency | activity change, negative = inhibition
1 | CN(c1ccc(C(=O)Nc2ccc(Cl)cn2)cc1)S(=O)(=O)c1ccccc1 | inconclusive: 32.6 µM [inhibitor, single point] | –
2 | c1ccc(C2=Nn3c(nnc3-c3cc(-c4ccccc4)n[nH]3)SC2)cc1 | inconclusive: 20.6 µM [inhibitor, single point] | –
3 | CCc1cccc(OCCn2nc(C(=O)O)c3ccccc3c2=O)c1 | inconclusive: 20.6 µM [inhibitor, partial curve, poor fit] | –
4 | COc1ccccc1C(=O)NC(=S)Nc1ccc(N2CCOCC2)c(Cl)c1 | inconclusive: 29.1 µM [inhibitor, single point] | –
5 | CCC(=O)c1ccc(OCC(=O)N(Cc2nnc(-c3ccccc3Cl)o2)C2CC2)cc1 | inconclusive: 8.2 µM [inhibitor, partial curve, poor fit] | –
6 | Nc1nonc1C(=O)NCCN=Cc1ccccc1O | – | inactive: 16.2%
7 | COc1ccc(/C=C/c2cc(C(F)(F)F)on2)cc1 | inconclusive: 16.4 µM [activator, partial curve] | –
8 | COc1cccc(CN2CCN(Cc3ccccc3C(F)(F)F)CC2)c1 | – | inactive: 9.53%
9 | Cc1ccc(CNC(=O)c2cc(=O)c3cc(C)ccc3o2)cc1 | – | inactive: -1.11%
10 | O=C(N/N=C/c1cc(Br)c(Br)o1)c1ccc2c(c1)OCCO2 | inconclusive: 2.31 µM [activator, full curve] | –
11 | O=[N+]([O-])c1cc(-c2nnc(C34CC5CC(CC(C5)C3)C4)o2)cc([N+](=O)[O-])c1 | inconclusive: 5.8 µM [inhibitor, partial curve, poor fit] | –
12 | COc1ccc(CCNC(=O)N[C@@H](Cc2ccccc2)C(=O)O)cc1 | – | inactive: 0.716%
13 | NNC(=O)c1ccc(OCC2CC(c3ccc(Cl)cc3)=NO2)cc1 (stereo not given) | inconclusive: 20.6 µM [inhibitor, partial curve, poor fit] | –
14 | COc1cc(C(=O)O/N=C2/C=CC(=O)C(C)=C2C)cc(OC)c1OC | – | inactive: -2.06%
15 | CC(=O)N1c2ccc(S(=O)(=O)N(C)Cc3ccco3)cc2CC1C (stereo not given) | – | inactive: 24.2%
16 | C=CCSc1nnc2n(CCc3ccccc3)c(=O)c3c4c(sc3n12)COC(C)(C)C4 | – | inactive: -14.9%
17 | COc1ccc(C2C(C#N)=C(N)N(c3sc4c(c3C#N)CCCC4)C3=C2C(=O)CC(C)(C)C3)cc1OC (stereo not given) | – | inactive: -27.5%
18 | O=C(Nc1ccc(Cl)cc1)N1CC=CCC1 | inconclusive: 11.6 µM [activator, partial curve] | –
19 | C=CCN(Cc1ccc(OC)c(OC)c1)C(=O)N1CCOCC1 | inconclusive: 0.058 µM [activator, partial curve, poor fit] | –
20 | CCC(C)[C@H](NC(=O)N1CC(=O)Nc2ccccc21)C(=O)N1CCC[C@H]1C(=O)O (stereo not given in full) | – | inactive: -2.93%
21 | COc1ccc(N(CC(=O)NC2CCCCC2)S(=O)(=O)c2cccs2)cc1 | inconclusive: 25.9 µM [activator, single point] | –
22 | O=C(NC(=S)NCc1ccc(Cl)cc1)c1ccco1 | inconclusive: 23.1 µM [activator, single point] | –
23 | COc1ccc(-c2ccnc3ncnn23)cc1 | inconclusive: 23.1 µM [activator, partial curve] | –
24 | COC(=O)c1c(C(=O)OC)c2oc3ccccc3n2c1Cl | inconclusive: 25.9 µM [inhibitor, partial curve, poor fit] | –

Row | SMILES | Potency | activity change, negative = inhibition
25 | CC(=O)Nc1ccc(NC2=CC(=O)c3ccccc3C2=O)cc1 | inconclusive: 16.4 µM [activator, partial curve] | –
26 | Cc1ccc(SCCNC(=O)c2cccc([N+](=O)[O-])c2C)cc1 | inconclusive: 20.6 µM [inhibitor, single point] | –
27 | CN1C(=O)c2ccc(NC(=O)c3ccc(Cl)cc3Cl)cc2C1=O | inconclusive: 18.3 µM [activator, single point] | –
28 | CCOC(=O)/C=C/C(=O)OCC(=O)Nc1cccc(Cl)c1Cl | – | inactive: 7.38%
29 | COc1ccc2c(c1)c(C(=O)CN1CCN(c3ccccc3)CC1)c(C)n2C | inconclusive: 29.1 µM [inhibitor, single point] | –
30 | Clc1ccc(-n2nnnc2-c2cnc(-c3ccccn3)nc2-c2cccs2)cc1 | inconclusive: 4.61 µM [inhibitor, partial curve] | –
31 | Cc1ccc(S(=O)(=O)Nc2ccc3c(c2)nc2n3CCN(Cc3ccccc3)C2)cc1 | inconclusive: 25.9 µM [inhibitor, single point] | –
32 | CCn1c(C)c(C(C)=O)c(N2CCCC2)nc1=S | – | inactive: -0.144%
33 | CC(C)c1ccc(NC2CCCN(C(=O)c3cccc(N4CCNC4=O)c3)C2)cc1 (stereo not given) | inconclusive: 32.6 µM [inhibitor, single point] | –
34 | CCOc1ccc(NC(=O)CCC(=O)NNC(=O)COc2ccccc2C)cc1 | inconclusive: 8.2 µM [activator, partial curve, poor fit] | –
35 | C=CCSc1nnc(-c2ccncc2)n1-c1ccc(OCC)cc1 | – | inactive: 8.07%
36 | O=C(NC1CCCC1)C(c1ccccc1)N(Cc1ccc(F)cc1)C(=O)c1csnn1 (stereo not given) | – | inactive: -1.73%
37 | Cn1c(SCC(=O)NCc2ccc3c(c2)OCO3)nnc1-c1cc2ccccc2cc1O | inconclusive: 16.4 µM [inhibitor, partial curve, poor fit] | –
38 | CC(C)CCOc1ccc(C(=O)NCC(c2cccs2)N2CCOCC2)cc1 (stereo not given) | – | inactive: -3.82%
39 | CCCCn1c(N)c(N(C)C(=O)c2ccc(OCC3CCCO3)cc2)c(=O)[nH]c1=O (stereo not given) | – | inactive: 9.75%
40 | COc1ccc(CCNC(=O)CN(c2ccccc2OC)S(=O)(=O)c2ccc(C)cc2)cc1 | inconclusive: 16.4 µM [inhibitor, single point] | –
41 | O=C(Nc1cccnc1Cl)c1ccc2c(Cl)c3c(nc2c1)CCC3 | inconclusive: 1.64 µM [activator, partial curve] | –
42 | CC(C(=O)OCc1nnc(-c2ccccc2)o1)N1C(=O)C2CCCCC2C1=O (stereo not given) | inconclusive: 29.1 µM [activator, single point] | –
43 | COc1ccc(OCC(O)Cn2c(=N)n(Cc3ccccc3)c3ccccc32)cc1 (stereo not given) | inconclusive: 16.4 µM [inhibitor, single point] | –
44 | CN(C)c1ccc(-c2nn3c(C4CCCCC4)nnc3s2)cc1 | inconclusive: 13 µM [inhibitor, single point] | –
45 | CC1CCCN(C(=O)CCNC(=O)c2ccccc2Cl)C1 (stereo not given) | inconclusive: 20.6 µM [activator, partial curve, poor fit] | –
46 | CCOc1ccc2oc(C(=O)N3CCN(Cc4ccccc4)CC3)c(C)c2c1 | – | inactive: -28.7%
47 | CCOc1ccc(/C=N/NC(=O)c2cc(-c3ccco3)nc3ccccc23)cc1 | – | inactive: 8.64%
48 | CCCCNC(=O)Nc1ccccn1 | – | inactive: 10.9%

Row | SMILES | Potency | activity change, negative = inhibition
49 | O=C(NC(=S)Nc1ccc(N2CCOCC2)c(Cl)c1)c1cccs1 | – | inactive: -6.3%
50 | O=C1NC2(CCC3(CC2)OCCO3)NN1c1ccc(Cl)cc1 | – | inactive: -11%
51 | CCCCCCN(C(=O)CCCCCN1C(=O)NC(c2ccc(-c3ccccc3)cc2)C(C(=O)OCc2ccccc2)=C1C)C(C(=O)NCCCC)c1ccc(-c2ccccc2)cc1 (stereo not given) | inconclusive: 32.6 µM [activator, partial curve, poor fit] | –
52 | Cc1ccc(CN2CCN(C(=O)c3ccco3)CC2)cc1 | – | inactive: 0.235%
53 | N#Cc1cnn(-c2nc3sc4c(c3c(=O)[nH]2)CCCC4)c1N | inconclusive: 14.6 µM [activator, single point] | –
54 | CN1CCN(C(=O)c2ccccc2-c2nc(-c3ccccc3)no2)CC1 | inconclusive: 8.2 µM [activator, partial curve] | –
55 | COc1ccc(C2=Nn3c(nnc3-c3ccccc3C(F)(F)F)SC2)cc1OC1CCOC1 (stereo not given) | inconclusive: 13 µM [inhibitor, partial curve, poor fit] | –
56 | CCc1ccc(OCC(=O)NC2CCCCC2)c(Br)c1 | – | inactive: 12.3%
57 | Nc1nnnn1/N=C/c1ccc(N2CCCCC2)c([N+](=O)[O-])c1 | – | inactive: 26.3%
58 | Clc1cccc(N2CCN(Cc3ccc(Br)o3)CC2)c1 | – | inactive: -12.7%
59 | CCOC(=O)c1c(N)c(C#N)nn1-c1ccccc1C(=O)OC | inconclusive: 0.731 µM [activator, partial curve, poor fit] | –
60 | CCCC(=O)c1ccc(N2CCN(C(=O)c3ccc(Br)cc3)CC2)c(F)c1 | inconclusive: 16.4 µM [inhibitor, single point] | –
61 | Cc1cccc(N2C(=O)C3CCC(c4ccccc4)CC3C2=O)c1 (stereo not given) | inconclusive: 18.4 µM [inhibitor, partial curve, poor fit] | –
62 | COC(=O)C1=C(C)N=C2SC(C#N)=C(N)N2C1c1cccc(OC)c1 (stereo not given) | inconclusive: 23.1 µM [activator, partial curve, poor fit] | –
63 | COC(=O)CC(NC(=O)c1ccc(C)cc1)c1ccccc1 (stereo not given) | – | inactive: 18.7%
64 | CCC(=O)Nc1ccc(-c2ccc(N3CCC(C)CC3)nn2)cc1 | inconclusive: 14.6 µM [activator, partial curve] | –
65 | Cc1ccc(Cn2nnc3c(=O)n(CC(=O)N4CCN(c5ccccc5)CC4)cnc32)cc1 | active: 14.6 µM | –
66 | CCOC(=O)c1ccc(Nc2nc(C)cc(C)c2C#N)cc1 | inconclusive: 18.4 µM [inhibitor, partial curve, poor fit] | –
67 | Cc1nc(NCCc2ccccc2F)c(C#N)c(C)c1[N+](=O)[O-] | inconclusive: 29.1 µM [inhibitor, single point] | –
68 | CSCCC(NS(=O)(=O)c1ccc2c(c1)OCCO2)C(=O)N(C)Cc1ccc(F)cc1 (stereo not given) | inconclusive: 25.9 µM [inhibitor, single point] | –
69 | NNC(=O)C(=O)Nc1ccc(O)cc1 | inconclusive: 16.4 µM [inhibitor, partial curve] | –
70 | CCCCn1c(N)c(N(CCOC)C(=O)c2ccc(N3CCCC3)c([N+](=O)[O-])c2)c(=O)[nH]c1=O | – | inactive: 13.8%

Entries 40 to 44 of the list above:
Row | SMILES | Potency | activity change, negative = inhibition
40 | COc1ccc(CCNC(=O)CN(c2ccccc2OC)S(=O)(=O)c2ccc(C)cc2)cc1 | inconclusive: 16.4 µM [inhibitor, single point] | –
41 | O=C(Nc1cccnc1Cl)c1ccc2c(Cl)c3c(nc2c1)CCC3 | inconclusive: 1.64 µM [activator, partial curve] | –
42 | CC(C(=O)OCc1nnc(-c2ccccc2)o1)N1C(=O)C2CCCCC2C1=O (stereo not given) | inconclusive: 29.1 µM [activator, single point] | –
43 | COc1ccc(OCC(O)Cn2c(=N)n(Cc3ccccc3)c3ccccc32)cc1 (stereo not given) | inconclusive: 16.4 µM [inhibitor, single point] | –
44 | CN(C)c1ccc(-c2nn3c(C4CCCCC4)nnc3s2)cc1 | inconclusive: 13 µM [inhibitor, single point] | –
